# Measured values published in the supplement of paper PMC12889115.
# Some of the results follow. Values are raw readings; no control value is given beside them.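 First-pass screen: polymyxin B was added at a level that permeabilizes the Salmonella outer membrane while sparing the inner membrane. DMSO wells, with and without polymyxin B, defined maximum growth. Because plates differed from one another, each plate's data were ranked separately and the compounds with the lowest OD600 were carried forward as hits.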
# Test system: Salmonella enterica serovar Typhimurium SL1344
# Assay: bacterial growth OD600 after 18 h with compound and polymyxin B; higher = more bacterial growth (less inhibition)
# Details: 50 µM, Mueller-Hinton broth
Compound,bacterial growth OD600 (polymyxin B 0.75 µg/mL),bacterial growth OD600 (polymyxin B 1 µg/mL)
CCCCC1CN(CCNC(=O)Cc2sc(C)nc2C)Cc2ccccc2O1 (stereo not drawn),0.825,–
Cc1ccc2c(CC(=O)N3CCc4c(cnc(C)c4CNC(=O)c4cncs4)C3)cc(=O)oc2c1,0.821,–
O=C(CCC1CCCN(C(=O)C2CCCCC2)C1)N1CCN(Cc2ccccc2)CC1 (stereo not drawn),–,0.836
COc1ccccc1N1CCN(C2CCCN(C(=O)CCC(N)=O)C2)CC1 (stereo not drawn),–,1.08
CC(C)c1nccn1CCCNC(=O)c1ccc(N2CCN(C(C)C)CC2)nc1,–,1.22
CC1CN(Cc2ccc3c(c2)OCO3)Cc2cc(Cl)ccc2O1 (stereo not drawn),0.095,–
O=C(NCCc1cnccn1)c1cc(COc2cccc(F)c2)[nH]n1,0.89,–
CCC(C)CC(=O)N1CCC(C2(Cc3cccc(F)c3)NC(=O)N(CCOC)C2=O)CC1 (stereo not drawn),0.889,–

# 2 of the compounds above, tab-delimited:
Compound	bacterial growth OD600 (polymyxin B 0.75 µg/mL)	bacterial growth OD600 (polymyxin B 1 µg/mL)
COc1ccccc1N1CCN(C2CCCN(C(=O)CCC(N)=O)C2)CC1 (stereo not drawn)	–	1.08
CC(C)c1nccn1CCCNC(=O)c1ccc(N2CCN(C(C)C)CC2)nc1	–	1.22
